PubChem BioAssay AID651640 (Broad Institute, 2012)
“And” between values parts separate entries of the source, which are not always exact repeats. Equal values may be shown once. Screen size: about 350,000 compounds; about 6,000 (1.7%) were called active. This list was built around the results that the source calls inconclusive (neither active nor inactive); the mix of calls is not that of the screen. Rule as the data show it: active = CPE inhibition above about 20% (passing the limit was not always enough); inconclusive = no clear call, values can overlap the other calls; tested in BHK-21 cells.

Assay: protection of cells from dengue 2 killing – plate reader, single concentration, primary screen (AID 651640);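 also: 0% = median of neutral control wells and 100% = median of positive control wells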
Details: DENV2-infected cells, cytopathic effect rescue, at 9.99 µM, stronger effect = higher value

Structure (SMILES) | CPE inhibition
CNC[C@H]1Oc2cc(C#Cc3ccc(OC)cc3)ccc2S(=O)(=O)N([C@H](C)CO)C[C@@H]1C | inactive: -7.03%
Cc1ccc(Sc2nc(C)c([N+](=O)[O-])c(C)c2C#N)cc1 | active: 28.9%
CCOc1ccc(C2/C(=C(/O)c3ccc4c(c3)CC(C)O4)C(=O)C(=O)N2CC2CCCO2)cc1 (stereo not given) | inconclusive: 20%
Cc1noc(C)c1NC(=O)N(C)C[C@@H]1OCCCC[C@@H](C)Oc2ccc(NC(=O)C3CCCCC3)cc2C(=O)N([C@@H](C)CO)C[C@@H]1C | active: 25.2%
O=C(Nc1ccccc1Cl)c1cc(C2CCCN(C(=O)OCCF)C2)on1 (stereo not given) | inconclusive: 54.4%
C[C@H]1CN([C@@H](C)CO)C(=O)CCCn2nncc2CO[C@H]1CN(C)C(=O)CCC(F)(F)F | inconclusive: 22.8%
Cc1cc([N+](=O)[O-])ccc1NC(=O)CSc1nccc(=O)[nH]1 | inconclusive: 24.5%
COc1ccc(S(=O)(=O)Nc2ccc3c(c2)C(=O)N([C@@H](C)CO)C[C@@H](C)[C@H](CN(C)C(=O)Cc2ccccc2)OCCCC[C@@H](C)O3)cc1 | inactive: 2.72%
C[C@@H]1CN([C@@H](C)CO)C(=O)Cc2cc(NS(C)(=O)=O)ccc2O[C@H]1CN(C)Cc1ccc(C(F)(F)F)cc1 | active: 20%
COc1ccc2sc(-c3ccc(N(C)C)cc3)c(C#CCCO)c2c1 | active: 26.4%
O=C(N[C@H]1CC[C@H](CCNC(=O)C2CCCC2)O[C@@H]1CO)c1ccncc1 | active: 25.4%
CCOc1ccc(CCNC(=O)CCCn2nc(C)c3c(C)n(-c4ccccc4)nc3c2=O)cc1 | inconclusive: 24.6%
COc1ccc(/C=C/C(=O)NC(=S)Nc2ccc(S(=O)(=O)N=C(N)N)cc2)cc1OC | inactive: 17.7%
CNc1oc(-c2cccs2)nc1S(=O)(=O)c1ccccc1 | inactive: -8.96%
CCC(=O)Nc1ccc2c(c1)OC[C@H](C)N(Cc1ccccc1)C[C@@H](C)[C@H](OC)CN(C)C2=O | inconclusive: 28%
CCOC(=O)[C@H]1[C@H]2COc3ccc(Cl)cc3[C@@H]2N2C(=O)c3ccc(Cl)cc3NC(=O)[C@@]12C | active: 52%
CCCCC[C@@H]1C=C(C(=O)O)[C@H](c2ccc(CC)cc2)N1S(=O)(=O)c1ccc(C)cc1 | inconclusive: 52.3%
CN(C)C(=O)[C@H]1[C@H](CO)[C@H]2Cn3c(ccc(-c4cccnc4)c3=O)[C@H]2N1Cc1ccccc1F | inactive: -5.63%
O=C(COc1ccc([N+](=O)[O-])cc1)Nc1ccc(C(=O)Nc2ccccc2C(=O)O)cc1 | inconclusive: 20.9%
O=C(NC1CCCCC1)c1nc(C2CCNCC2)oc1-c1ccccc1 | inconclusive: 24.1%
CC(On1nnc2ccc(S(=O)(=O)N3CCOCC3)cc21)C(=O)Nc1ccccc1F (stereo not given) | inconclusive: 24.2%
CCC(CC)C(=O)Nc1nnc(S(=O)(=O)N2CCCC2)s1 | inconclusive: 23.6%
C[C@@H]1CN([C@@H](C)CO)C(=O)Cc2cc(NC(=O)Cc3ccccc3)ccc2O[C@H]1CN(C)Cc1ccc(Cl)c(Cl)c1 | active: 26.3%

Two of these compounds in a different format:

| Structure (SMILES) | CPE inhibition |
| --- | --- |
| CCC(CC)C(=O)Nc1nnc(S(=O)(=O)N2CCCC2)s1 | inconclusive: 23.6% |
| C[C@@H]1CN([C@@H](C)CO)C(=O)Cc2cc(NC(=O)Cc3ccccc3)ccc2O[C@H]1CN(C)Cc1ccc(Cl)c(Cl)c1 | active: 26.3% |

Remaining list, next part.

Structure (SMILES) | CPE inhibition
Oc1[nH]c2ccc(Br)cc2c1N=NC(=S)NCC1CCCO1 (stereo not given) | inactive: 3.9%
CCO[C@@H]1OC(C(=O)NCc2nc3ccccc3[nH]2)=C[C@H](c2ccc(C(F)(F)F)cc2)[C@H]1CCCO | inconclusive: 22.7%
O=C(NNC(=S)NCC1CCCO1)c1cc(Br)ccc1Cl (stereo not given) | inconclusive: 49.6%
COCCNC(=O)CS(=O)Cc1nc(-c2ccc(Cl)cc2)oc1C (stereo not given) | active: 63.6%
C[C@H](CO)N1C[C@H](C)[C@@H](CN(C)C(=O)NC2CCCCC2)Oc2c(NC(=O)Nc3ccc(C(F)(F)F)cc3)cccc2C1=O | active: 28.7% and inconclusive: 26.6%
COc1ccccc1N1CCN(C2CCCN(C(=O)c3cccc(-c4ccco4)c3)C2)CC1 (stereo not given) | active: 44%
COc1ccc2c3c([nH]c2c1)[C@H](CO)N(C(=O)Nc1cccc(F)c1)CC31CN(S(=O)(=O)c2ccccc2)C1 | active: 79.2%
Cc1ccc(N2NC3(CCN(C(N)=O)CC3)NC2=O)cc1 | inconclusive: 39%
C[C@@H]1CN([C@@H](C)CO)C(=O)Cc2cc(NC(=O)C3CC3)ccc2O[C@@H]1CN(C)Cc1ccccc1 | inconclusive: 23.9%
CC(C)C(=O)Nc1ccc2c(c1)C(=O)N(C)[C@@H]1CC[C@H](CC(=O)N[C@@H](C)c3ccccc3)O[C@@H]1CO2 | inactive: -0.425%
COCCNC(=O)C[C@@H]1C[C@H]2c3cc(NC(=O)Nc4ccc(OC)cc4)ccc3O[C@H]2[C@H](CO)O1 | active: 23%
Nc1ccc2ccccc2c1C(=O)c1ccccc1 | active: 57%
CNC[C@H]1Oc2ccc(NC(=O)CCN3CCOCC3)cc2C(=O)N([C@@H](C)CO)C[C@H]1C | inactive: 10%
COc1ccccc1NC(=O)Nc1ccc2c(c1)C(=O)N(C)C[C@H](OC)[C@@H](C)CN(C)[C@@H](C)CO2 | inactive: 0.245%
Cc1ccc(C(=O)N[C@H](C(=O)Nc2sccc2C(N)=O)C(C)C)cc1 | inconclusive: 26.6%
C[C@@H]1CN([C@H](C)CO)C(=O)CCCn2nncc2CO[C@@H]1CN(C)C(=O)c1ccccc1 | inconclusive: 30.7%
COc1ccc(S(=O)(=O)Nc2ccc3c(c2)C(=O)N([C@@H](C)CO)C[C@@H](C)[C@H](CN(C)S(=O)(=O)c2ccccc2)OCCCC[C@H](C)O3)cc1 | inactive: -16%
C=CCN=C1NC(c2ccccc2)C(C(=O)OC)=C(C)N1Cc1ccc(C(F)(F)F)cc1 (stereo not given) | inconclusive: 22.6%
COc1ccc(OC)c(CNC(=O)c2nn(C)c3c2CS(=O)(=O)c2ccccc2-3)c1 | inconclusive: 25.6%
CO[C@H]1CN(C)C(=O)c2ccc(NC(=O)NC(C)C)cc2OC[C@@H](C)N(C)C[C@@H]1C | inactive: 6.44%
COc1ccc2c3c([nH]c2c1)[C@H](CO)N(C(=O)Nc1c(C)noc1C)CC31CCN(CC2CCCCC2)CC1 | inconclusive: 68.7%
O=C(O)C1CCCN1S(=O)(=O)c1cccc(S(=O)(=O)N2CCCC2C(=O)O)c1 (stereo not given) | inconclusive: 55.7%
